From ROBIN, a set of small-molecule microarray screens (doi:10.1002/anie.202211358).

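Compounds were printed on reactive glass slides in duplicate spots, a dye-labelled oligonucleotide was laid over them, and the fluorescence left after washing was read. For the PreQ1, TPP and SAM-II riboswitches the laboratory earlier reported (doi:10.1038/s41467-019-09493-3) 1 µM RNA, 2 h, and a rule that included a mean Z-score above 3 (spot signal-to-noise against the whole library), a score well above that on a control array, and duplicate spots agreeing (coefficient of variation under 100). The data file gives only the calls; its cut-offs may differ, and compounds hitting several targets are kept. These are primary screening calls, not affinities; a compound without a hit may have attached poorly or may still bind in solution.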
“active” means called a hit, “inactive” means screened and not called a hit.
Compounds were drawn at random from those tested, without regard to their results.

Targets (5′ to 3′):
PreQ1: PreQ1 riboswitch RNA pseudoknot, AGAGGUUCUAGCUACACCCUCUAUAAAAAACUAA. From B. subtilis. About 24,000 compounds screened, about 170 hits.
SAM-II: SAM-II riboswitch RNA pseudoknot, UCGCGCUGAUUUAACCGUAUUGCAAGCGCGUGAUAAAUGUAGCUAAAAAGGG. About 21,000 compounds screened, about 200 hits.
TPP: TPP riboswitch RNA three-way junction, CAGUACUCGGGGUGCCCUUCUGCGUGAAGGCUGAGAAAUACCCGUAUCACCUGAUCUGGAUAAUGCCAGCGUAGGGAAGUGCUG. About 24,000 compounds screened, about 160 hits.

Calls for O=C(NCC(O)COC1CCCCC1)Nc1cccc(-n2cnnc2)c1 (stereo unspecified) are PreQ1: inactive; SAM-II: inactive; TPP: inactive.
Calls for Cc1nc(C2CCCNC2)cc(N(C)Cc2cc(C(C)(C)C)n[nH]2)n1 (stereo unspecified) are PreQ1: inactive; SAM-II: inactive; TPP: inactive.
Calls for Cc1ccc2c(c1)c(CNC(=O)c1cccc(C3CCCNC3)c1)nn2C (stereo unspecified) are PreQ1: inactive; SAM-II: inactive; TPP: inactive.
Calls for c1cn(CCc2csc3c2CCCC3)c(-c2cc3n(n2)CCCNC3)n1 are PreQ1: inactive; SAM-II: inactive; TPP: inactive.
Calls for O=C(Nc1ccccc1)C1=C(Nc2ccccc2)CSC1 are PreQ1: inactive; SAM-II: inactive; TPP: inactive.
Calls for Cc1nc(CN2CCC3(CC2)OCCCC3O)n(C)n1 (stereo unspecified) are PreQ1: inactive; SAM-II: inactive; TPP: inactive.
Calls for CCC[C@H]1CN(CCCO)C[C@@H]1NC(=O)c1cccnn1 are PreQ1: inactive; SAM-II: inactive; TPP: inactive.
Calls for CCOC(=O)c1c(N)nn(C(=O)C(C)C)c1-c1ccccc1 are PreQ1: inactive; SAM-II: inactive; TPP: inactive.
Calls for CC(C)=CCC1(CO)CCCN(C(=O)CCN2CCOCC2)C1 (stereo unspecified) are PreQ1: inactive; SAM-II: inactive; TPP: inactive.
Calls for CCOc1cc(C(=O)Nc2ccc(Cl)c(-c3nc4ccccc4[nH]3)c2)cc(OCC)c1OCC are PreQ1: inactive; SAM-II: inactive; TPP: inactive.
Calls for CC(C)c1c(C(=O)Nc2ccccc2)c(-c2ccccc2)c(-c2ccc(F)cc2)n1CC[C@H](O)C[C@@H](O)CC(=O)[O-] are PreQ1: inactive; SAM-II: inactive; TPP: inactive.
Calls for O=c1[nH]cc(CCNC2CCOC3(CCOCC3)C2)c(=O)[nH]1 (stereo unspecified) are PreQ1: inactive; SAM-II: inactive; TPP: inactive.
Calls for C=CCC1(CO)CCCN(CCCS(=O)(=O)N(C)C)C1 (stereo unspecified) are PreQ1: inactive; SAM-II: inactive; TPP: inactive.
Calls for C=CCc1c(C)nc(N)nc1N1CCN(c2ncnc3[nH]cnc23)CC1 are PreQ1: inactive; SAM-II: inactive; TPP: inactive.
Calls for Cn1c2c(c(=O)n(C)c1=O)C(c1ccccc1F)C(C#N)=C(N)O2 (stereo unspecified) are PreQ1: inactive; SAM-II: inactive; TPP: inactive.
Calls for CC(C)(Sc1ccc(CCN(CCCCC2CCCCC2)C(=O)NC2CCCCC2)cc1)C(=O)O are PreQ1: inactive; SAM-II: inactive; TPP: inactive.
Calls for NCCc1nc(NCCN2CCCOC2=O)c2ccccc2n1 are PreQ1: inactive; SAM-II: inactive; TPP: inactive.
Calls for COc1ccccc1CC(C)N(C)C(=O)c1cn(CCN)nn1 (stereo unspecified) are PreQ1: inactive; SAM-II: inactive; TPP: inactive.
Calls for CCCN(CC1CC1)c1cc(CCN)ncn1 are PreQ1: inactive; SAM-II: inactive; TPP: inactive.
Calls for O=C(O)CNc1ccccc1C(=O)NCC1(COc2ccccc2)CC1 are PreQ1: inactive; SAM-II: inactive; TPP: inactive.